In patent EP2476410A1, “An analgesic peptide-containing composition for transbuccal administration” (priority 2011, dated 2012):
Not every detail of the peptide structures is certain; ends, links or a residue may be inferred. Marks after values point to notes of the source that are not given here. Where a SMILES comes first, the peptide text is derived from it.

Assays:
Type in all cases: in vivo
Swiss albino mice [1] = experiment: Acetic acid-induced writhing model; settings: 1 mg/kg, sublingual
Sprague-Dawley rats = experiment: Formalin model
Swiss albino mice [2] = experiment: Hot plate model
[3] = sublingual administration, 3 h post-dose

With `C[C@@H](O)[C@H](NC(=O)[C@@H]1CCCN1C(=O)[C@H](Cc1ccccc1)NC(=O)[C@@H]1CCCN1C(=O)[C@@H](N)CC(N)=O)C(=O)N[C@@H](Cc1c[nH]c2ccccc12)C(=O)N[C@@H](CCCNC(=N)N)C(=O)N[C@@H](CCCCN)C(=O)N[C@@H](CCCNC(=N)N)C(=O)N1CCC[C@H]1C(=O)NCC(=O)O` [the peptide, NPFPTWRKRPG] (H-NPFPTWRKRPG-OH) the “Time to first writhe” value (Swiss albino mice [1]) was 168.93* % saline control, the “Total writhes in 15 min” value (Swiss albino mice [1]) was 67.49* % saline control and the “Writhes in first 5 min” value (Swiss albino mice [1]) was 63.95 % saline control. The “Writhes in subsequent 10 min” value (Swiss albino mice [1]) was 69.07* % saline control, the “number of flinches, delayed phase” value (Sprague-Dawley rats; 1 mg/kg sublingual, 1 h post-dose, delayed phase) was “no significant effects were observed” and the “number of flinches of the formalin-injected hind limb, acute phase” value (Sprague-Dawley rats; 1 mg/kg sublingual, 1 h post-dose, first 5 min after formalin injection, vs saline-treated controls) was “significantly reduced the number of flinches”. For the same compound, the “number of flinches in the first 5 min, separate experiment” value (Sprague-Dawley rats; sublingual, separate experiment (Fig. 3B)) was “showed antinociceptive effects”, the “time of peak antinociceptive effect” value (Swiss albino mice [2]; 0.4 mg/kg sublingual) was about 3 h and the “duration of significant antinociceptive effect” value (Swiss albino mice [2]; 0.4 mg/kg sublingual, post-dose) was 1 to 6 h. The ED50 (Swiss albino mice [2]; [3]) was 0.18 mg/kg and the Emax (Swiss albino mice [2]; [3]) was 180 % of pre-dose latency.
